In PubChem BioAssay AID200 (DTP/NCI, 2004):
The list shows only some results of the screen, not a fair sample: it gathers tests that were run many times, whatever their T/C, doses with no T/C, and many T/C values between a quarter and a half above the control. Other doses and runs of a compound stand elsewhere. T/C is the treated group as % of the vehicle group. Some entries give survivors of the animals treated and no T/C: the source files T/C as zero there, which appears to mark a toxic dose or a test without result, not a measured value. Some doses without a T/C left all or most animals alive at the check, yet need not have been tolerated: survival well below the control is almost never listed, so the zero probably covers shortened survival too. Counts of survivors are from the toxicity check (mostly the fifth day) where no day follows; animals may have died later. Schedule codes are those of the source, taken here to give the interval after Q, in days (D) or hours (H), and the number of doses after X. Where survival is the endpoint, this PubChem deposit counts one and a half times the control or more as active, and values a quarter to a half above the control carry no call in these data; other NCI protocols may use other cut-offs.

System: B6C3F1 mice, B16 melanoma ip, median survival T/C
Assay: NCI In Vivo Anticancer Drug Screen. Data for tumor model B16 Melanoma (intraperitoneal) in B6C3F1 mice
Conditions: T/C endpoint: median survival time, schedule: Q01DX009 (ip), higher T/C = longer survival
Procedure, shortened: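 Mice bearing transplanted tumor were dosed with compound or vehicle, and survival was recorded. Activity is expressed as the treated-group measurement (T) divided by the vehicle control measurement (C).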

`O=C1CC2(C(=O)N1CN1CCOCC1)c1ccccc1-c1ccccc12` was tested, and the survivor count (dose: 800.0 mg/kg/injection, vehicle: Klucel (hydroxypropylcellulose) (HPC)) was 5 of 10.

`CC(C)OC(=O)c1ccc(C(C)C)cc1` was tested, and the survivor count (dose: 25.0 mg/kg/injection, vehicle: saline with Tween-80) was 9 of 10.

For `COc1cc2c(c3c1c(=O)c1cccc(F)c1n3C)C=CC(C)(C)O2`, the survivor count (dose: 200.0 mg/kg/injection, vehicle: Klucel (hydroxypropylcellulose) (HPC)) was 10 of 10 and the survivor count (dose: 400.0 mg/kg/injection, vehicle: Klucel (hydroxypropylcellulose) (HPC)) was 10 of 10.

`O=C(O)CP(=O)(O)O` was tested, and the T/C (dose: 200.0 mg/kg/injection, vehicle: saline) was 134 % of control, the survivor count (dose: 1600.0 mg/kg/injection, vehicle: saline) was 10 of 10 and the survivor count (dose: 3200.0 mg/kg/injection, vehicle: saline) was 0 of 10.

For `N[C@@H](C[C@H]1CCC(=O)[C@@H]2O[C@H]12)C(=O)O`, the T/C (dose: 100.0 mg/kg/injection, vehicle: saline + alcohol) was 134 % of control and the T/C (dose: 200.0 mg/kg/injection, vehicle: saline + alcohol) was 125 % of control.
